The values that follow come from patent US5821222A (Bayer Aktiengesellschaft, priority 1992, dated 1998).

A short description of this data set: general procedure: solution-phase peptide synthesis; BOP-Cl / N,N-diisopropylethylamine; DCC/pentafluorophenol for active ester.

Take “Cyclo(N-methyl-L-isoleucyl-D-lactyl-N-methyl-L-isoleucyl-D-lactyl-N-methyl-L-isoleucyl-D-lactyl-)”: where the note is “cyclisation step”, the cyclisation yield is reported as 36.8% of theory and the “final purity (method not given)” value is on record as “purity 84%”.
As to “N-Benzyloxycarbonyl-N-methyl-L-isoleucyl-D-lactyl-N-methyl-L-isoleucyl-D-lactyl-N-methyl-L-isoleucyl-D-lactic acid”, for the setting “late stage modification step”, the step yield is given as 82.9% of theory.
Same read-out and setting: the value for “N-Methyl-L-isoleucyl-D-lactyl-N-methyl-L-isoleucyl-D-lactyl-N-methyl-L-isoleucyl-D-lactic acid” was 100% of theory; that for “Pentafluorophenyl N-benzyloxycarbonyl-N-methyl-L-isoleucyl-D-lactyl-N-methyl-L-isoleucyl-D-lactyl-N-methyl-L-isoleucyl-D-lactate” was 54% of theory.
Regarding “tert-Butyl N-benzyl-N-methyl-L-leucyl-D-lactyl-N-methyl-L-leucyl-D-lactate”, the step yield (coupling step) was 96.0% of theory.
With “tert-Butyl N-benzyloxycarbonyl-N-methyl-L-isoleucyl-D-lactyl-N-methyl-L-isoleucyl-D-lactyl-N-methyl-L-iso-leucyl-D-lactate”, the step yield (coupling step) is 77.4% of theory.
Take “tert-Butyl N-methyl-L-leucyl-D-lactyl-N-methyl-L-leucyl-D-lactate”: the step yield (late stage modification step) is 100% of theory.
